Measured data: PubChem BioAssay AID743121 (NCATS, 2013)

- Purpose: 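Knock-downs that sensitise breast cancer cells to camptothecin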 (primary screen)
- Cell system: MDA-MB-231 cells, a human breast cancer line
- Reagent: single siRNA against human genes, 20 nM siRNA (0.8 pmol per well)
- Timing: 120 h (drug added 48 h after transfection, read 72 h later)
- Challenge: camptothecin 20 nM (about EC30) for 72 h; vehicle 0.1% DMSO in parallel plates
- Measurement: 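CellTiter-Glo ATP signal, scaled to control siRNA as percent viability; sensitisation given as log2 of untreated divided by camptothecin-treated viability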
- Direction: log2 vehicle/camptothecin viability: higher = stronger sensitisation to camptothecin
- Rule for the call: 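Each gene scored by redundant siRNA activity (RSA) over its individual siRNA ratios; a gene is called active at p < 0.001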
This is one part, drawn at random, of about 26,000 deposited reagents. In the full data, 167 (0.63%) were called active. 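Calls are per gene from RSA p-values that are not deposited; an individual active-marked siRNA can sensitise only weakly.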 Reagents against one gene are numbered here. Not all columns of the deposit are shown.

LHX4 #1
- log2 vehicle/camptothecin viability: -0.137
- activity call: inactive

LHX4 #2
- log2 vehicle/camptothecin viability: -0.0257
- activity call: inactive

LHX4 #3
- log2 vehicle/camptothecin viability: 0.00794
- activity call: inactive

LHX4 #4
- log2 vehicle/camptothecin viability: -0.2
- activity call: inactive

PKIA #1
- log2 vehicle/camptothecin viability: 0.145
- activity call: inactive

PKIA #2
- log2 vehicle/camptothecin viability: -0.695
- activity call: inactive

PKIA #3
- log2 vehicle/camptothecin viability: 0.0951
- activity call: inactive

PKIA #4
- log2 vehicle/camptothecin viability: 0.0623
- activity call: inactive

KALRN #1
- log2 vehicle/camptothecin viability: -0.104
- activity call: inactive

KALRN #2
- log2 vehicle/camptothecin viability: -0.474
- activity call: inactive

KALRN #3
- log2 vehicle/camptothecin viability: -0.177
- activity call: inactive

KALRN #4
- log2 vehicle/camptothecin viability: -0.408
- activity call: inactive

KALRN #5
- log2 vehicle/camptothecin viability: 0.693
- activity call: inactive

KALRN #6
- log2 vehicle/camptothecin viability: -0.115
- activity call: inactive

KALRN #7
- log2 vehicle/camptothecin viability: -0.19
- activity call: inactive

KALRN #8
- log2 vehicle/camptothecin viability: -0.153
- activity call: inactive

KALRN #9
- log2 vehicle/camptothecin viability: -0.291
- activity call: inactive

KALRN #10
- log2 vehicle/camptothecin viability: -0.0972
- activity call: inactive

KALRN #11
- log2 vehicle/camptothecin viability: -0.253
- activity call: inactive

USP46 #1
- log2 vehicle/camptothecin viability: -0.26
- activity call: inactive

USP46 #2
- log2 vehicle/camptothecin viability: -0.265
- activity call: inactive

USP46 #3
- log2 vehicle/camptothecin viability: -0.506
- activity call: inactive

USP46 #4
- log2 vehicle/camptothecin viability: -0.09
- activity call: inactive

LRP10 #1
- log2 vehicle/camptothecin viability: -0.138
- activity call: inactive

LRP10 #2
- log2 vehicle/camptothecin viability: -0.11
- activity call: inactive

LRP10 #3
- log2 vehicle/camptothecin viability: -0.218
- activity call: inactive

LRP10 #4
- log2 vehicle/camptothecin viability: 0.235
- activity call: inactive

Next part, starting with the last 3 of the part before.
LRP10 #2
- log2 vehicle/camptothecin viability: -0.11
- activity call: inactive

LRP10 #3
- log2 vehicle/camptothecin viability: -0.218
- activity call: inactive

LRP10 #4
- log2 vehicle/camptothecin viability: 0.235
- activity call: inactive

NPY #1
- log2 vehicle/camptothecin viability: -0.0718
- activity call: inactive

NPY #2
- log2 vehicle/camptothecin viability: 0.321
- activity call: inactive

NPY #3
- log2 vehicle/camptothecin viability: -0.426
- activity call: inactive

NPY #4
- log2 vehicle/camptothecin viability: 0.0799
- activity call: inactive

TRH #1
- log2 vehicle/camptothecin viability: -0.077
- activity call: inactive

TRH #2
- log2 vehicle/camptothecin viability: 0.782
- activity call: inactive

TRH #3
- log2 vehicle/camptothecin viability: 0.568
- activity call: inactive

TRH #4
- log2 vehicle/camptothecin viability: -0.406
- activity call: inactive

CD8A #1
- log2 vehicle/camptothecin viability: -0.197
- activity call: inactive

CD8A #2
- log2 vehicle/camptothecin viability: 0.244
- activity call: inactive

CD8A #3
- log2 vehicle/camptothecin viability: 0.207
- activity call: inactive

CD8A #4
- log2 vehicle/camptothecin viability: 0.0606
- activity call: inactive

GUCY2C #1
- log2 vehicle/camptothecin viability: -0.708
- activity call: inactive

GUCY2C #2
- log2 vehicle/camptothecin viability: -0.248
- activity call: inactive

GUCY2C #3
- log2 vehicle/camptothecin viability: 0.0395
- activity call: inactive

GUCY2C #4
- log2 vehicle/camptothecin viability: -0.39
- activity call: inactive

GUCY2C #5
- log2 vehicle/camptothecin viability: -0.117
- activity call: inactive

SLIT2 #1
- log2 vehicle/camptothecin viability: -0.143
- activity call: inactive

SLIT2 #2
- log2 vehicle/camptothecin viability: 0.0487
- activity call: inactive

SLIT2 #3
- log2 vehicle/camptothecin viability: -0.34
- activity call: inactive

SLIT2 #4
- log2 vehicle/camptothecin viability: 0.0693
- activity call: inactive
